# Experimental data: patent US12312379B2 (Chugai Seiyaku Kabushiki Kaisha, priority 2021, dated 2025)
# Assay: peptide synthesis
substance,measurement,setting,value
(3S)-3-[[(2S)-2-[[1-[[(2S)-1-benzyloxycarbonylpyrrolidine-2-carbonyl]amino]cyclopentanecarbonyl]-methyl-amino]-2-cyclopentyl-acetyl]-methyl-amino]-4-(dimethylamino)-4-oxo-butanoic acid,step yield,"late stage modification step, qNMR",94.1% yield
benzyl (2S)-2-[[1-[[(1S)-2-[[(1S)-3-tert-butoxy-1-(dimethylcarbamoyl)-3-oxo-propyl]-methyl-amino]-1-cyclopentyl-2-oxo-ethyl]-methyl-carbamoyl]cyclopentyl]carbamoyl]pyrrolidine-1-carboxylate,step yield,"coupling step, qNMR",50.9%
"tert-butyl 2-[[(2S)-2-[[(2S)-1-[(2S)-2-[[(2S,3S)-2-(benzyloxycarbonylamino)-3-methyl-pentanoyl]-methyl-amino]propanoyl]azetidine-2-carbonyl]-ethyl-amino]-3-(p-tolyl)propanoyl]-methyl-amino]acetate",step yield,"coupling step, run 1",75.1% yield
same,step yield,"coupling step, run 2",63%
same,step yield,"coupling step, run 3",66%
same,step yield,"coupling step, run 4",62%
same,step yield,"coupling step, run 5",60%
tert-butyl (3S)-3-[[(2S)-2-cyclopentyl-2-[methyl-[1-[[(2S)-pyrrolidine-2-carbonyl]amino]cyclopentanecarbonyl]amino]acetyl]-methyl-amino]-4-(dimethylamino)-4-oxo-butanoate,step yield,late stage modification step,92.3%
